For this test, the target named is EphA2 (as used in the Co-IP with Lyn, Src, Fyn and Lck, Fig. S2), P29317. Description: co-IP; EphA2 with SRC family kinases (Fig. S2A-D); endogenous or tagged proteins and cells not stated. The conditions noted are these: remark: other sources report otherwise.

Among the data in publication PMC8134040 are binding values, retold here.

No constants are given. Whether binding was seen depends on the method and setting. Binding seen in cells or lysates may run through a third protein.

B1: Lyn, P07948 1-512 (enzyme)
chain: MGCIKSKGKDSLSDDGVDLKTQPVRNTERTIYVRDPTSNKQQRPVPESQLLPGQRFQTKDPEEQGDIVVALYPYDGIHPDDLSFKKGEKMKVLEEHGEWWKAKSLLTKKEGFIPSNYVAKLNTLETEEWFFKDITRKDAERQLLAPGNSAGAFLIRESETLKGSFSLSVRDFDPVHGDVIKHYKIRSLDNGGYYISPRITFPCISDMIKHYQKQADGLCRRLEKACISPKPQKPWDKDAWEIPRESIKLVKRLGAGQFGEVWMGYYNNSTKVAVKTLKPGTMSVQAFLEEANLMKTLQHDKLVRLYAVVTREEPIYIITEYMAKGSLLDFLKSDEGGKVLLPKLIDFSAQIAEGMAYIERKNYIHRDLRAANVLVSESLMCKIADFGLARVIEDNEYTAREGAKFPIKWTAPEAINFGCFTIKSDVWSFGILLYEIVTYGKIPYPGRTNADVMTALSQGYRMPRVENCPDELYDIMKMCWKEKAEERPTFDYLQSVLDDFYTATEGQYQQQP
Regarding B1, the binding entry is reported as “no binding”.
